Reference: the supplement of paper PMC7877785
± gives the uncertainty stated by the source. Many of these values have a large error.

Test: self-splicing fitness, log relative to wild type (ln ratio); higher = more splicing; Tetrahymena group I intron in knt gene, E. coli kanamycin selection, DiMSum; sequences stand for … in CUCUCU…GGAGGGAAAAGUUAUCAGGCAUGCACCUGGUAGCUAGUCUUUAAACCAAUAGAUUGCAUCGGUUUAAAAGGCAAGACCGUCAAAUUGCGGGAAAGGGGUCAACAGCCGUUCAGUACCAAGUCUCAGGGGAAACUUUGAGAUGGCCUUGCAAAGGGUAUGGUAAUAAGCUGACGGACAUGGUCCUAACCACGCAGCCAAGUCCUAAGUCAACAGAUCUUCUGUUGAUAUGGAUGCAGUUCACAGACUAAAUGUCGGUCGGGGAAGAUGUAUUCUUCUCAUAAGAUAUAGUCGGACCUCUCCUUAAUGGGAGCUAGCGGAUGAAGUGAUGCAACACUGGAGCCGCUGGGAACUAAUUUGUAUGCGAAAGUAUAUUGAUUAGUUUUGGAGUACUCGUGGUCG
Procedure, shortened: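 Colonies from six replicate transformations of E. coli BL21(DE3) were pooled and amplicon-sequenced on an Illumina HiSeq 2500. The library placed an intron with all eight P1ex-region nucleotides randomised inside the knt kanamycin-resistance gene on pET-22b(+), and cells grew overnight at 37°C or 30°C on LB agar with or without 25 μg/mL kanamycin (plus 100 μg/mL carbenicillin, 50 μM IPTG, 0.2% rhamnose). Fitness is the DiMSum error-weighted combination of wild-type-normalised replicate fold changes, kanamycin versus none.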

Sequence | self-splicing fitness (ln) (30 °C) | self-splicing fitness (ln) (37 °C)
UAAUAGCAAUAUUACGGCUU | -0.901 ± 0.096 | -0.115 ± 0.13
CUUGAGCAAUAUUACGGCUA | -1.75 ± 0.76 | –
CGGGAGCAAUAUUACGGAGA | – | -2.58 ± 0.76
CUUGAGCAAUAUUACGCAUA | – | -1.57 ± 0.51
GUUUAGCAAUAUUACGUGGU | -3.77 ± 0.59 | –
UCGUAGCAAUAUUACGUCUA | -1.48 ± 0.1 | -0.978 ± 0.12
CGAGAGCAAUAUUACGACUU | -3.75 ± 0.6 | -2.22 ± 0.51
GCUGAGCAAUAUUACGCCCU | -1.4 ± 0.52 | -1.37 ± 1.2
UGCGAGCAAUAUUACGCUAG | – | -2.08 ± 1.1
UACUAGCAAUAUUACGCUAC | -4.01 ± 0.52 | –
GCUGAGCAAUAUUACGCUCG | -2.7 ± 0.36 | -0.729 ± 0.26
GUCGAGCAAUAUUACGCUAC | -3.26 ± 0.53 | -1.12 ± 0.64
ACCCAGCAAUAUUACGGUCC | -1.61 ± 0.085 | -1.4 ± 0.12
CCGGAGCAAUAUUACGCUAC | – | -2.33 ± 0.64
CCCCAGCAAUAUUACGGAGC | -3.08 ± 0.15 | -2.83 ± 0.23
UUUGAGCAAUAUUACGGUGU | -4.23 ± 0.52 | –
UGGGAGCAAUAUUACGCGGA | -3.56 ± 0.52 | –
GUUUAGCAAUAUUACGUCGC | -1.67 ± 0.16 | -0.462 ± 0.18
GAAUAGCAAUAUUACGUUAA | -2.56 ± 0.17 | -1.9 ± 0.15
CUUGAGCAAUAUUACGACCA | – | -2.08 ± 1.1

Sequence | self-splicing fitness (ln) (30 °C) | self-splicing fitness (ln) (37 °C)
UCAAAGCAAUAUUACGAGGG | -2.11 ± 0.12 | -1.03 ± 0.12
UAGGAGCAAUAUUACGGUGA | -3.64 ± 0.76 | –
UGCGAGCAAUAUUACGUAGU | -5.47 ± 0.71 | –
GCGAAGCAAUAUUACGCAAG | – | -2.73 ± 0.54
CCCGAGCAAUAUUACGAACU | -4 ± 1 | –
GGAAAGCAAUAUUACGCGCG | -0.394 ± 0.08 | -0.275 ± 0.12
UGCGAGCAAUAUUACGGCCG | – | -1.65 ± 0.58
UCUCAGCAAUAUUACGGAAC | – | -1 ± 0.92
AUUAAGCAAUAUUACGACGU | 0.564 ± 0.087 | 0.495 ± 0.093
CAAUAGCAAUAUUACGCCCC | – | -0.414 ± 0.68
UUUUAGCAAUAUUACGAGGG | – | -3.15 ± 0.52
CGCGAGCAAUAUUACGCACC | -2.98 ± 0.54 | -1 ± 0.92
UUAGAGCAAUAUUACGAGUU | -4.23 ± 1 | –
CUUAAGCAAUAUUACGAAGU | -2.9 ± 0.13 | -2.19 ± 0.18
UGGGAGCAAUAUUACGAUAA | – | -1.54 ± 1.2
CACGAGCAAUAUUACGGUAA | -4.44 ± 0.59 | –
CAGUAGCAAUAUUACGGUCA | -2.24 ± 0.84 | –
CGGUAGCAAUAUUACGCAAU | -4.53 ± 0.51 | –
GGAGAGCAAUAUUACGGCAC | – | -0.557 ± 0.51
UCAAAGCAAUAUUACGGUCU | -2.68 ± 0.16 | -1.58 ± 0.14

Sequence | self-splicing fitness (ln) (30 °C) | self-splicing fitness (ln) (37 °C)
AGUUAGCAAUAUUACGCCAA | -2.48 ± 0.65 | –
CUUCAGCAAUAUUACGCGUU | -2.33 ± 0.12 | -2.7 ± 0.21
UUCAAGCAAUAUUACGUCCC | – | -0.234 ± 1
UCGUAGCAAUAUUACGAAAC | -3.94 ± 0.51 | –
UCGGAGCAAUAUUACGGCCU | – | -1.99 ± 0.67
UCGAAGCAAUAUUACGUUGC | – | -4.41 ± 0.59
UCGGAGCAAUAUUACGAGAU | -3.4 ± 1.1 | –
GUUGAGCAAUAUUACGCUCA | -2.94 ± 1.1 | –
AAAGAGCAAUAUUACGCUCU | -4.64 ± 0.59 | –
UGGAAGCAAUAUUACGUUAC | -3.16 ± 1 | -2.73 ± 0.62
CCAAAGCAAUAUUACGAAAA | -1.93 ± 0.17 | -2.85 ± 0.32
UUUUAGCAAUAUUACGGUUC | -2.44 ± 1.1 | -2.17 ± 0.56
GCGGAGCAAUAUUACGCUCU | -4.66 ± 1 | -1.98 ± 0.52
UCUCAGCAAUAUUACGACCG | -0.974 ± 0.59 | –
UAAGAGCAAUAUUACGCACU | – | -2.18 ± 1.1
CGAGAGCAAUAUUACGUCCC | -2.97 ± 0.75 | -3.28 ± 0.73
GAGAAGCAAUAUUACGGAAU | -3.69 ± 0.25 | -1.55 ± 0.2
GAAGAGCAAUAUUACGCUGA | -4.44 ± 0.74 | –
CUCUAGCAAUAUUACGCUGC | -3.58 ± 0.44 | -2.98 ± 0.53

Taken from above:
UCGGAGCAAUAUUACGAGAU | self-splicing fitness (ln) (30 °C): -3.4 ± 1.1
UCUCAGCAAUAUUACGACCG | self-splicing fitness (ln) (30 °C): -0.974 ± 0.59
